Measurements as given in PubChem BioAssay AID540276 (National Center for Advancing Translational Sciences (NCATS), 2011).
Values joined by “and” are separate entries in the source; they are usually repeats but may differ in a detail not shown here. Equal values may be shown once. Out of some 300,000 compounds screened, about 5,400 (1.8%) were called active. The shares of active, inactive and inconclusive entries below differ from those in the screen. Calls follow the shape of the full dose curve; tested in HEK293 cells. Where the call is inconclusive, the potency comes from a doubtful curve fit. The source holds several records for some structures; these can differ, active in one and inactive in another.

assay: qHTS for inhibitors of binding or entry into cells for Marburg Virus; details: Marburg virus pseudotyped entry inhibition, cell reporter; activity change, negative = inhibition: at 37.8 µM (top of the series) unless noted
% is scaled to controls: 0 for no effect and ±100 for the full control effect; potency is read from the fitted curve at half-maximal effect.

Row | SMILES | Potency | activity change, negative = inhibition
1 | CCOC(=O)c1c2n(c3c(NCc4ccccc4)ncnc13)CCCC2 | inconclusive: 35.5 µM [inhibitor, single point] | –
2 | CN(C)S(=O)(=O)c1cccc(NC(=O)C(c2ccccc2)c2ccccc2)c1 | inconclusive: 20 µM [inhibitor, single point] | –
3 | CSc1ccc(/C=N/n2nnnc2N)cc1 | inconclusive: 25.9 µM [activator, partial curve, poor fit] | –
4 | CCOC(=O)c1c(C)[nH]c(C(=O)COC(=O)CCSc2ccccc2)c1C | inconclusive: 7.08 µM [activator, partial curve, poor fit] | –
5 | Cc1cccc(Nc2c([N+](=O)[O-])c(=O)oc3ccccc23)c1 | inconclusive: 35.5 µM [inhibitor, partial curve, poor fit] | –
6 | CCOC(=O)CC1C(=O)NCCN1C(=O)Nc1ccccc1 (stereo not drawn) | – | inconclusive: 18.4% [activator]
7 | O=C(Nc1ccc(F)c(Cl)c1)N1CCCCCC1 | inconclusive: 8.91 µM [activator, partial curve, poor fit] | –
8 | O=C(Nc1ccc(N2CCCCC2)cc1)c1ccc([N+](=O)[O-])o1 | inconclusive: 35.5 µM [inhibitor, single point] | –
9 | CCOc1ccccc1C1Nc2ccccc2-c2nnc(SCc3ccccc3)nc2O1 (stereo not drawn) | inactive | –
10 | CC(=O)c1cn(CC(=O)Nc2c(C)cccc2C)c2ccccc12 | inconclusive: 11.2 µM [inhibitor, partial curve, poor fit] | –
11 | c1ccn(-c2ccc(-c3ccn[nH]3)cc2)c1 | inconclusive: 6.51 µM [activator, single point] | –
12 | Cc1ccc(-c2nc(NCc3cccnc3)c3ccccc3n2)cc1 | inactive | –
13 | CCOc1ccc(-c2cc(CCCC(=O)NCCc3ccc(OC)c(OC)c3OC)no2)cc1 | inconclusive: 11.6 µM [inhibitor, partial curve, poor fit] | –
14 | CC(=O)NC(CC(=O)Nc1ccc(S(=O)(=O)N2CCCC2)cc1)c1ccccc1 (stereo not drawn) | inactive | –
15 | O=[N+]([O-])c1cccc(C(=Nc2cccc(Cl)c2)NO)c1 | inactive | –
16 | CCOC(=O)c1sc(NC(=O)Nc2ccccc2F)nc1C | active: 2.24 µM | –
17 | C[C@H](NCCC(c1ccccc1)c1ccccc1)c1ccccc1 | inconclusive: 8.2 µM [inhibitor, partial curve, poor fit] | –
18 | COc1cccc(NC(=O)NC(C)C2CC3CCC2C3)c1 (stereo not drawn) | inconclusive: 35.5 µM [inhibitor, single point] | –
19 | COc1ccc(NC(=O)c2cccc(Cn3cc(Br)cn3)c2)cn1 | inactive | –
20 | CC(=O)c1ccc(N2CCN(C(=O)Nc3ccc(F)cc3F)CC2)cc1 | inconclusive: 28.2 µM [inhibitor, single point] | –
21 | COC(=O)c1[nH]c2cccc(OC)c2c1NC(=O)CCN1CCN(c2cccc(Cl)c2)CC1 | inactive | –
22 | COc1ccc([C@@H]2Sc3cc(OC)ccc3N(CCN(C(C)C)C(C)C)C(=O)[C@H]2OC(C)=O)cc1 | inconclusive: 18.3 µM [inhibitor, single point] | –
23 | Cc1cc(C)nc(SC(C(=O)O)c2ccccc2)n1 (stereo not drawn) | inactive | –

Row | SMILES | Potency | activity change, negative = inhibition
24 | O=C(O)c1cccc([N+](=O)[O-])c1C(=O)Nc1cccc2ccccc12 | inactive | –
25 | Oc1ccccc1/C=N/Nc1cccc2cccnc12 | inconclusive: 32.6 µM [inhibitor, single point] | –
26 | CN(Cc1ccc(F)cc1)C(=O)c1cccc(S(=O)(=O)N2CCN(Cc3ccccc3)CC2)c1 | inconclusive: 35.5 µM [inhibitor, single point] | –
27 | CN(Cc1nccs1)C(=O)c1ccc(OC2CCN(CCc3ccccc3)CC2)cc1 | inconclusive: 3.98 µM [inhibitor, partial curve, poor fit] | –
28 | CC12CCC(C)(O1)C1C(=O)N(c3nccs3)C(=O)C12 (stereo not drawn) | inactive | –
29 | O=C(C1CC(c2ccc(Cl)c(Cl)c2)=NO1)N1CCC2(CC1)OCCO2 (stereo not drawn) | inactive | –
30 | COc1cc(Br)c(CCNC(=O)Cc2ccccc2)cc1OC | inconclusive: 2.82 µM [activator, partial curve, poor fit] | –
31 | O=C(Cc1ccc(-c2ccccc2)cc1)Nc1ccccn1 | inconclusive: 35.5 µM [inhibitor, single point] | –
32 | COc1ccc(Nc2cc(C)nc3ccc(OC)cc23)cc1 | inconclusive: 25.1 µM [inhibitor, single point] | –
33 | O=C(/C=C/c1ccc(Br)cc1)N1CCN(Cc2ccccc2)CC1 | inconclusive: 10 µM [inhibitor, partial curve, poor fit] | –
34 | O=C(Nc1ccc(F)cc1)c1ccccc1NC(=O)C1CCCCC1C(=O)O (stereo not drawn) | inconclusive: 5.62 µM [activator, single point] | –
35 | O=C(Cn1cnc2c(oc3ccccc32)c1=O)N1CCCC1 | inconclusive: 2.51 µM [activator, partial curve, poor fit] | –
36 | Cc1ccc(C(=O)Nc2ccc(N3CCN(S(C)(=O)=O)CC3)cc2)cc1C | inactive | –
37 | COc1ccc(CCCc2nnc(SCC(=O)Nc3ccc(Cl)cc3)o2)cc1 | inconclusive: 35.5 µM [inhibitor, single point] | –
38 | Cc1cc(C)n(-c2nc(-c3cccc(Cl)c3)cs2)n1 | inconclusive: 1.58 µM [activator, partial curve, poor fit] | –
39 | O=C1CC(c2cccc(F)c2)SC(N(c2ccccc2)c2ccccc2)=N1 (stereo not drawn) | inconclusive: 18.3 µM [inhibitor, partial curve, poor fit] | –
40 | N#Cc1cc2c(=O)n3ccccc3nc2n(-c2nnc(SCc3ccccc3F)s2)c1=O | inconclusive: 0.562 µM [inhibitor, full curve, poor fit] | –
41 | COc1ccc(CCN(C)CCc2ccc(OC)c(OC)c2)cc1OC | inactive and active: 5.01 µM | –
42 | CCOc1ccc(NS(=O)(=O)c2cc(C(=O)N(CC)CC(=O)NCc3cccs3)ccc2C)cc1 | inconclusive: 0.251 µM [inhibitor, full curve] | –
43 | CCc1ccc(C(O)(CC)C(CN2CCOCC2)c2ccccc2)cc1 (stereo not drawn) | inconclusive: 20 µM [inhibitor, single point] | –
44 | CCc1cc2c(=O)n(CCCOC)c(SCC(=O)Nc3oc(C)c4c(C)n[nH]c(=O)c34)nc2s1 | inactive | –
45 | CCc1ccccc1N1C(=O)NC(=O)/C(=C\c2cc(C)n(C)c2C)C1=O | inactive | –
46 | CC[N+](CC)(CC)CC | inconclusive: 29.1 µM [activator, single point] | –

Row | SMILES | Potency | activity change, negative = inhibition
47 | Cc1ccc(CN(C(=O)c2ccc([N+](=O)[O-])cc2)c2ccccn2)cc1 | inactive | –
48 | CN(C)C(=O)c1nc2ccccc2s1 | inconclusive: 35.5 µM [activator, single point] | –
49 | CC(=O)Nc1ccc(OCC(O)Cn2nc(C)c(C)c2C)cc1 (stereo not drawn) | inconclusive: 0.355 µM [inhibitor, partial curve, poor fit] | –
50 | NC(=O)N1CCC2(CC1)NC(=O)N(c1ccccc1)N2 | inconclusive: 12.6 µM [inhibitor, partial curve, poor fit] | –
51 | CCN(CC)S(=O)(=O)c1cccc(-c2n[nH]c(=S)n2C)c1 | inconclusive: 35.5 µM [activator, single point] | –
52 | COc1ccc(-c2ccc(C(c3c(C)[nH][nH]c3=O)c3c(C)[nH][nH]c3=O)o2)c([N+](=O)[O-])c1 | inconclusive: 5.01 µM [inhibitor, full curve, poor fit] | –
53 | CC1CN(c2ccnc3cc(Cl)ccc23)CC(C)O1 (stereo not drawn) | inconclusive: 11.2 µM [inhibitor, partial curve, poor fit] | –
54 | CNc1c([N+](=O)[O-])cnn1-c1ccccn1 | inconclusive: 35.5 µM [activator, single point] | –
55 | Nc1ccccc1Nc1cccc(C(F)(F)F)c1 | inconclusive: 31.6 µM [inhibitor, single point] | –
56 | CCOc1ccccc1N(CC)C(=O)c1cc2c(=O)n(CC)c3ccccc3c2s1 | inconclusive: 8.91 µM [inhibitor, partial curve, poor fit] | –
57 | Cn1c(C2CCCCC2)nc2ccccc21 | – | inconclusive: 2.41% [activator]
58 | CCN(CC)S(=O)(=O)c1ccc2c(c1)N(CC(=O)Nc1ccc(NC(C)=O)cc1)C(=O)CO2 | inconclusive: 3.16 µM [inhibitor, single point] | –
59 | O=C(Nc1ccccc1F)c1oc2ccccc2c1NC(=O)C12CC3CC(CC(C3)C1)C2 | inactive | –
60 | CCC(C)n1c(SCc2ccc([N+](=O)[O-])cc2)nc2ccsc2c1=O (stereo not drawn) | active: 12.6 µM | –
61 | COc1ccc(N(CC(=O)NN=C2CCCCCCC2)S(=O)(=O)c2ccccc2)cc1 | inactive | –
62 | Cn1c(=O)c(C(=O)COC(=O)c2cc(C3CC3)nc3ccccc23)c(N)n(Cc2ccccc2)c1=O | inactive | –
63 | CCOC(=O)C1=C(C)N=C2SC(C(=O)OC)=CC(=O)N2C1c1ccc(OC)cc1 (stereo not drawn) | inactive | –
64 | CC(=O)c1ccc(-n2c(SCC(=O)c3c[nH]c4ccccc34)nc3ccccc3c2=O)cc1 | inactive | –
65 | O=[N+]([O-])c1nn(-c2ccc3c(c2)OCCO3)n(O)c1=NCCCO | inconclusive: 35.5 µM [inhibitor, partial curve, poor fit] | –
66 | COc1cccc(NC(=O)CN(C)CC(=O)Nc2ccc(Cl)cc2[N+](=O)[O-])c1 | inconclusive: 35.5 µM [inhibitor, single point] | –
67 | Cc1ccc(C(C)NC(=S)NCc2ccc(F)cc2)c(C)c1 (stereo not drawn) | inconclusive: 11.2 µM [inhibitor, partial curve, poor fit] | –
68 | CC(C)Sc1nnc(NC(=O)c2ccc3c(c2)OCO3)s1 | inactive | –

Entries shown so far containing bromine:
Row | SMILES | Potency | activity change, negative = inhibition
19 | COc1ccc(NC(=O)c2cccc(Cn3cc(Br)cn3)c2)cn1 | inactive | –
30 | COc1cc(Br)c(CCNC(=O)Cc2ccccc2)cc1OC | inconclusive: 2.82 µM [activator, partial curve, poor fit] | –
33 | O=C(/C=C/c1ccc(Br)cc1)N1CCN(Cc2ccccc2)CC1 | inconclusive: 10 µM [inhibitor, partial curve, poor fit] | –
